Earlier results as cited in PMC7408396, “IPEC-J2 rMdr1a, a New Cell Line with Functional Expression of Rat P-glycoprotein Encoded by Rat Mdr1a for Drug Screening Purposes” (Pharmaceutics, 2020).

The chains behind the UniProt entries cited, without tags or fusion partners.
UniProt P08183, whole entry: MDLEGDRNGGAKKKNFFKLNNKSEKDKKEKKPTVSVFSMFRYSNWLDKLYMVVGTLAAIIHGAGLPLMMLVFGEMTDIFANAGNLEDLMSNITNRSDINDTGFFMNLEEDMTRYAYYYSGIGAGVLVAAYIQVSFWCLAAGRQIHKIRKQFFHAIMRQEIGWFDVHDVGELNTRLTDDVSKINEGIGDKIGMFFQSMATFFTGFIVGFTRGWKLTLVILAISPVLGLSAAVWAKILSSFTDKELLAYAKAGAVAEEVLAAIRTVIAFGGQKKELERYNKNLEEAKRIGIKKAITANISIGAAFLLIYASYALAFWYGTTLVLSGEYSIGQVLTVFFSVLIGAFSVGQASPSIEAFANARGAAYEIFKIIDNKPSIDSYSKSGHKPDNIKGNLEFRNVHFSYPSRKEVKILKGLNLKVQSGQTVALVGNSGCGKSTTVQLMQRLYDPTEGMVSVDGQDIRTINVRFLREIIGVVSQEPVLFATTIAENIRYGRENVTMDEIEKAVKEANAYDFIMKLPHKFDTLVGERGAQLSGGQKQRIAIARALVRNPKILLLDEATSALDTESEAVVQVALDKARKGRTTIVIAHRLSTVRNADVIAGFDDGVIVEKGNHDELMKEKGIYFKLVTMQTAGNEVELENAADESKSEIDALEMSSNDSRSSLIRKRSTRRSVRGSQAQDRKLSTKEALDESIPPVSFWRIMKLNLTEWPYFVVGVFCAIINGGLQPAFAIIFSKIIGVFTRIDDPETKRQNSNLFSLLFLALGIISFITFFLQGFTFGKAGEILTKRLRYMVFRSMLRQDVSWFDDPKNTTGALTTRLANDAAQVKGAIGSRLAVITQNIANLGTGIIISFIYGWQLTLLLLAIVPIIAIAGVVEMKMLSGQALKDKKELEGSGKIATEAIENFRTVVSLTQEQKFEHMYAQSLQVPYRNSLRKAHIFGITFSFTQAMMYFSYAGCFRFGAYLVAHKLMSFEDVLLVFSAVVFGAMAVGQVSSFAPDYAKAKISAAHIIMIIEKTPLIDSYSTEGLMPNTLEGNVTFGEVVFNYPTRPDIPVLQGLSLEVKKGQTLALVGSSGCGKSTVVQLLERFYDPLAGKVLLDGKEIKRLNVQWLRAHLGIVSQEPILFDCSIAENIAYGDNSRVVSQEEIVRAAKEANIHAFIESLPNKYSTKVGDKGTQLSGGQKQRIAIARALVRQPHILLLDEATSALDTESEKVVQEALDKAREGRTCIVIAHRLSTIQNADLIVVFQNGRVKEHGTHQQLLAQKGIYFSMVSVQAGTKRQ

Target: human P-gp (Homo sapiens, UniProt P08183)
Settings: IPEC-J2 MDR1 cells overexpressing human P-gp; cited from earlier work

## CC(C)NCC(O)COc1ccc(CC(N)=O)cc1 (stereo not shown) [atenolol]
  P-gp substrate identification: P-gp substrates
